Data reported in publication PMC7782553.
No constants are given. Whether binding was seen depends on the method and setting. In cells and extracts the contact can be indirect. Some binding calls cover weakened binding; strength is not graded here. For part of these data: Tags and fused reporters may be left off the sequences shown.

By UniProt entry, the sequences of proteins in these tests, tags left out.
UniProt P67809: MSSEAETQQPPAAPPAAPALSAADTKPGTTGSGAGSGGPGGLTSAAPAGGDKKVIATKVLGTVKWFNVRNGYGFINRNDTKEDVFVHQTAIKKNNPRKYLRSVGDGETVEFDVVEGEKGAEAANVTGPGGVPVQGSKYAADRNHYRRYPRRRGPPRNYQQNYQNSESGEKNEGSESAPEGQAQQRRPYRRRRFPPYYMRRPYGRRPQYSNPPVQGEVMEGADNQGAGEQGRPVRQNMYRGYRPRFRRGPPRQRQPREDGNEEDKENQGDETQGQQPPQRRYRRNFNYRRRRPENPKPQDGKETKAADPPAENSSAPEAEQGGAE

Key:
Flag-USP47 = molecular target: T1, Flag-USP47 (UniProt Q96K76); assay: co-IP; Flag-USP47 with GFP-YB-1 or GFP-YB-1-mu transfected in HEK293T; IP with anti-Flag antibody, western blot with anti-GFP antibody
T1 sequence: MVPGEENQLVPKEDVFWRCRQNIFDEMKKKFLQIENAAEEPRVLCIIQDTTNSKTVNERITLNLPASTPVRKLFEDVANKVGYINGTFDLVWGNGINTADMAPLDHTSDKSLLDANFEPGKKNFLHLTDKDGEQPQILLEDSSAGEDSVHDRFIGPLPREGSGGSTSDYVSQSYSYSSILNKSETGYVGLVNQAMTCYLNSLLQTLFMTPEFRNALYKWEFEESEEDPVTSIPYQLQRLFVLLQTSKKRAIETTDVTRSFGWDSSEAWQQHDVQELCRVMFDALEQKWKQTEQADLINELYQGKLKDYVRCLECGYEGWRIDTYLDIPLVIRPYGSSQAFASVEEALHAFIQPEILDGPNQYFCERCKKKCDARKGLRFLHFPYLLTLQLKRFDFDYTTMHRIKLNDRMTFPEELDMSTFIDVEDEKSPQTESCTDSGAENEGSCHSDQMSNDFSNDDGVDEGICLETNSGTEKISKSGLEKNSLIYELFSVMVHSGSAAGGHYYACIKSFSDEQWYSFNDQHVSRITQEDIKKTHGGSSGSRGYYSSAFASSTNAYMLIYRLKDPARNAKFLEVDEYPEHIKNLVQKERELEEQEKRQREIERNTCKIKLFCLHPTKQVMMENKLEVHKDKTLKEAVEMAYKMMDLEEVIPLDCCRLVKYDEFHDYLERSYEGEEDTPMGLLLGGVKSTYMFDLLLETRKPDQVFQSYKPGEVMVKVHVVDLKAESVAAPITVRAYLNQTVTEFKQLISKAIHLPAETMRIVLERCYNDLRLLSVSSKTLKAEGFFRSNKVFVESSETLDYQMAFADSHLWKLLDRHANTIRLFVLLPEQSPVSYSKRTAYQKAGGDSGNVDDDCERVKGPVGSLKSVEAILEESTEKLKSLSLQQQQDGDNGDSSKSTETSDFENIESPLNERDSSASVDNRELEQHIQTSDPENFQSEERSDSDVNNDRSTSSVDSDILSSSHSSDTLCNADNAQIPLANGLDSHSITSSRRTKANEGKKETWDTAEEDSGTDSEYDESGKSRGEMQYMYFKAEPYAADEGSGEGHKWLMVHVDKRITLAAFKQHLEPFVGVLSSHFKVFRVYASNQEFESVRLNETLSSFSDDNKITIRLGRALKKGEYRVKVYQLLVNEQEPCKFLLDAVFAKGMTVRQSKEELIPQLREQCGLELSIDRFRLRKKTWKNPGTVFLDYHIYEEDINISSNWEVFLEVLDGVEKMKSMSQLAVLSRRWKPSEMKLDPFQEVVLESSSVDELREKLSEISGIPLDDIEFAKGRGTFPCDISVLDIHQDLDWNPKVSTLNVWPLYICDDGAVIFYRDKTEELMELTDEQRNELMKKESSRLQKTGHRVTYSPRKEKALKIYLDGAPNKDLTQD

[1] = molecular target: T2, ubiquitin-specific peptidase 47 (USP47), endogenous (human (endogenous in K562 and primary CML cells)) (UniProt Q96K76); assay: co-IP; endogenous proteins; whole-cell extracts of K562 and primary CML cells, antibody overnight at 4 °C, protein A&G beads, washed three times with PBS, western blot
T2 sequence: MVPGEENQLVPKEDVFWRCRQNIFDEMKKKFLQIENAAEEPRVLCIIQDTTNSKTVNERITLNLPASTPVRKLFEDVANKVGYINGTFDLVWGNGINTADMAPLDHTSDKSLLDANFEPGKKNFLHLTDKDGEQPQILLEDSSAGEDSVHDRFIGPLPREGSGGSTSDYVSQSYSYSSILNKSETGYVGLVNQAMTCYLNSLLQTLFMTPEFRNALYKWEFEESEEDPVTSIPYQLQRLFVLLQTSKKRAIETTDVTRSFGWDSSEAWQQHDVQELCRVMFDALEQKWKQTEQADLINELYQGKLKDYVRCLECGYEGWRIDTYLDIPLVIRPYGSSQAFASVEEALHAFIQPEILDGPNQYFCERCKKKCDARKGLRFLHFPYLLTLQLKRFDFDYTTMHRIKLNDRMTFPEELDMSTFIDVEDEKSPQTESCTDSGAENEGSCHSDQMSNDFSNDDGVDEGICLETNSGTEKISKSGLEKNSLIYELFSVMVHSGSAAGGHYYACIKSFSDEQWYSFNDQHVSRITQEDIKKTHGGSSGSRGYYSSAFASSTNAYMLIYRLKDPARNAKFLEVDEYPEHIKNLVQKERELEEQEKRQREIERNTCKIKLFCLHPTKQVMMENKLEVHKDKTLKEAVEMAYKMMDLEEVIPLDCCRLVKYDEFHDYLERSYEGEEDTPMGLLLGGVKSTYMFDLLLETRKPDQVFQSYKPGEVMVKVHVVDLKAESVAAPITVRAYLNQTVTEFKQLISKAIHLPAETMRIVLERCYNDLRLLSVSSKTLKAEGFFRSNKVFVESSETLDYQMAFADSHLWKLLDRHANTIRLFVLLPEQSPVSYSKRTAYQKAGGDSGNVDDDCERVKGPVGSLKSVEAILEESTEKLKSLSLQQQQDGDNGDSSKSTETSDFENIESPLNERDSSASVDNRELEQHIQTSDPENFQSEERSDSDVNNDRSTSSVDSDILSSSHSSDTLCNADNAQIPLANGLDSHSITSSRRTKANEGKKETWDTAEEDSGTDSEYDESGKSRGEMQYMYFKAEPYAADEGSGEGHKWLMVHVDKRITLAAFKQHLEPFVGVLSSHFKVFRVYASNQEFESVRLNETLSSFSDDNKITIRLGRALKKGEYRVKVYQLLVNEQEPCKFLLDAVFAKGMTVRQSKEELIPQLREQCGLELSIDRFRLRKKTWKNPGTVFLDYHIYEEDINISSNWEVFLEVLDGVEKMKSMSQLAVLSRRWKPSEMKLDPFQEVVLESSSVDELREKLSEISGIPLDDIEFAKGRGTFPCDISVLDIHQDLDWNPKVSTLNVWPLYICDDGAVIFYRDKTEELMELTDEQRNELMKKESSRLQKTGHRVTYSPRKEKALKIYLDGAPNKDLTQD

GFP-YB-1 full length = GFP-YB-1 full length (UniProt P67809); assay: co-IP; GFP-YB-1 (full length or deletion constructs) co-transfected with Flag-USP47 in HEK293T; IP with anti-GFP antibody, western blot with anti-Flag antibody

“GFP-YB-1 full length (from UniProt P67809 1-324)” was tested, and the binding (Flag-USP47) was “binds”.

In the case of “Y-box binding protein 1 (YB-1), endogenous (from UniProt P67809 1-324)”, the binding [1] is reported as “binds”.

B1: Flag-USP47 (enzyme, UniProt Q96K76 1-1375)
chain: MVPGEENQLVPKEDVFWRCRQNIFDEMKKKFLQIENAAEEPRVLCIIQDTTNSKTVNERITLNLPASTPVRKLFEDVANKVGYINGTFDLVWGNGINTADMAPLDHTSDKSLLDANFEPGKKNFLHLTDKDGEQPQILLEDSSAGEDSVHDRFIGPLPREGSGGSTSDYVSQSYSYSSILNKSETGYVGLVNQAMTCYLNSLLQTLFMTPEFRNALYKWEFEESEEDPVTSIPYQLQRLFVLLQTSKKRAIETTDVTRSFGWDSSEAWQQHDVQELCRVMFDALEQKWKQTEQADLINELYQGKLKDYVRCLECGYEGWRIDTYLDIPLVIRPYGSSQAFASVEEALHAFIQPEILDGPNQYFCERCKKKCDARKGLRFLHFPYLLTLQLKRFDFDYTTMHRIKLNDRMTFPEELDMSTFIDVEDEKSPQTESCTDSGAENEGSCHSDQMSNDFSNDDGVDEGICLETNSGTEKISKSGLEKNSLIYELFSVMVHSGSAAGGHYYACIKSFSDEQWYSFNDQHVSRITQEDIKKTHGGSSGSRGYYSSAFASSTNAYMLIYRLKDPARNAKFLEVDEYPEHIKNLVQKERELEEQEKRQREIERNTCKIKLFCLHPTKQVMMENKLEVHKDKTLKEAVEMAYKMMDLEEVIPLDCCRLVKYDEFHDYLERSYEGEEDTPMGLLLGGVKSTYMFDLLLETRKPDQVFQSYKPGEVMVKVHVVDLKAESVAAPITVRAYLNQTVTEFKQLISKAIHLPAETMRIVLERCYNDLRLLSVSSKTLKAEGFFRSNKVFVESSETLDYQMAFADSHLWKLLDRHANTIRLFVLLPEQSPVSYSKRTAYQKAGGDSGNVDDDCERVKGPVGSLKSVEAILEESTEKLKSLSLQQQQDGDNGDSSKSTETSDFENIESPLNERDSSASVDNRELEQHIQTSDPENFQSEERSDSDVNNDRSTSSVDSDILSSSHSSDTLCNADNAQIPLANGLDSHSITSSRRTKANEGKKETWDTAEEDSGTDSEYDESGKSRGEMQYMYFKAEPYAADEGSGEGHKWLMVHVDKRITLAAFKQHLEPFVGVLSSHFKVFRVYASNQEFESVRLNETLSSFSDDNKITIRLGRALKKGEYRVKVYQLLVNEQEPCKFLLDAVFAKGMTVRQSKEELIPQLREQCGLELSIDRFRLRKKTWKNPGTVFLDYHIYEEDINISSNWEVFLEVLDGVEKMKSMSQLAVLSRRWKPSEMKLDPFQEVVLESSSVDELREKLSEISGIPLDDIEFAKGRGTFPCDISVLDIHQDLDWNPKVSTLNVWPLYICDDGAVIFYRDKTEELMELTDEQRNELMKKESSRLQKTGHRVTYSPRKEKALKIYLDGAPNKDLTQD
In the case of B1, the binding (GFP-YB-1 full length) is reported as “binds”.
